The supplement of paper PMC6078165
Values are relative to the signal before dosing, not to a vehicle control; the signal also falls without drug.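 Fibroblast labels name human fibroblasts: mostly primary ones from tissues such as uterus (C12385, HUF), lung (H6013), bone (Hs27A), adrenal (HADF) and skin (WS1), plus mammary HMF and breast cancer-associated Hs343T. The cancer cells are basal-like or mesenchymal-like triple-negative breast cancer lines. The paper calls a changed response a hit when it shifts by more than 3x the replicate standard deviation. The tissue of the other fibroblasts is not given here.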

Test system: HCC1143
Experiment: relative JC-1 red fluorescence (viability) vs pre-drug, coculture with fibroblast (fraction); higher = more viable cancer cells
Method: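 JC-1 labelled TNBC cells cocultured 1:1 (1,500 cells each) with CellTrace Violet stained primary or stromal fibroblasts in 384-well plates in FluoroBrite medium, treated with one of 42 anticancer drugs at 0.1, 1, 10 or 100 uM. JC-1 red fluorescence (mitochondrial integrity in cancer cells only) was read by plate reader every 8 h for 72 h. Values are normalised to each well's pre-drug value. The stock of one drug was tenfold lower, so its dose labels may be too high.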

O=NN(CCCl)C(=O)NC1CCCCC1 [Lomustine]
relative JC-1 red fluorescence
Conditions | 8 h | 16 h | 24 h | 32 h | 40 h | 48 h | 56 h | 64 h | 72 h
0.1 µM, coculture fibroblast: C12385 | 0.8433 | 0.7797 | 0.723 | 0.664 | 0.593 | 0.546 | 0.51 | 0.477 | 0.466
0.1 µM, coculture fibroblast: H6013 | 0.736 | 0.685 | 0.644 | 0.625 | 0.576 | 0.57 | 0.543 | 0.523 | 0.491
0.1 µM, coculture fibroblast: H6019 | 0.82 | 0.756 | 0.724 | 0.669 | 0.627 | 0.597 | 0.542 | 0.496 | 0.461
0.1 µM, coculture fibroblast: H6076 | 0.83703 | 0.846 | 0.819 | 0.778 | 0.731 | 0.723 | 0.704 | 0.688 | 0.696
0.1 µM, coculture fibroblast: H6231 | 0.787 | 0.764 | 0.696 | 0.615 | 0.599 | 0.571 | 0.536 | 0.498 | 0.483
0.1 µM, coculture fibroblast: HADF | 0.748 | 0.717 | 0.687 | 0.691 | 0.621 | 0.604 | 0.579 | 0.564 | 0.54
0.1 µM, coculture fibroblast: HCFa | 0.797 | 0.748 | 0.72 | 0.693 | 0.627 | 0.612 | 0.574 | 0.541 | 0.517
0.1 µM, coculture fibroblast: HCPF | 0.824 | 0.837 | 0.794 | 0.715 | 0.736 | 0.718 | 0.689 | 0.668 | 0.671
0.1 µM, coculture fibroblast: HHSteC | 0.86 | 0.819 | 0.788 | 0.747 | 0.67283 | 0.649 | 0.613 | 0.581 | 0.54
0.1 µM, coculture fibroblast: HMF | 0.806 | 0.806 | 0.725 | 0.6552 | 0.632 | 0.604 | 0.567 | 0.534 | 0.512
0.1 µM, coculture fibroblast: HPFa | 0.86057 | 0.783 | 0.747 | 0.65 | 0.595 | 0.554 | 0.499 | 0.445 | 0.408
0.1 µM, coculture fibroblast: HUF | 0.842 | 0.779 | 0.722 | 0.649 | 0.598 | 0.5793 | 0.5327 | 0.5033 | 0.487
0.1 µM, coculture fibroblast: Hs5 | 0.846 | 0.904 | 0.847 | 0.786 | 0.742 | 0.701 | 0.678 | 0.653 | 0.645
0.1 µM, coculture fibroblast: Hs27A | 0.702 | 0.651 | 0.613 | 0.62 | 0.504 | 0.494 | 0.451 | 0.424 | 0.399
0.1 µM, coculture fibroblast: Hs343T | 0.812 | 0.868 | 0.816 | 0.7114 | 0.707 | 0.657 | 0.6131 | 0.5849 | 0.551
0.1 µM, coculture fibroblast: WS1 | 0.843 | 0.7603 | 0.713 | 0.635 | 0.58 | 0.544 | 0.503 | 0.479 | 0.462
1 µM, coculture fibroblast: C12385 | 0.8698 | 0.787 | 0.712 | 0.64 | 0.574 | 0.517 | 0.464 | 0.418 | 0.392
1 µM, coculture fibroblast: H6013 | 0.739 | 0.642 | 0.59 | 0.555 | 0.485 | 0.47 | 0.437 | 0.418 | 0.372
1 µM, coculture fibroblast: H6019 | 0.808 | 0.728 | 0.673 | 0.613 | 0.56 | 0.534 | 0.48 | 0.439 | 0.4
1 µM, coculture fibroblast: H6076 | 0.808 | 0.7578 | 0.712 | 0.682 | 0.636 | 0.617 | 0.5856 | 0.567 | 0.574
1 µM, coculture fibroblast: H6231 | 0.82 | 0.815 | 0.731 | 0.635 | 0.6356 | 0.602 | 0.56 | 0.526 | 0.499
1 µM, coculture fibroblast: HADF | 0.742 | 0.664 | 0.645 | 0.653 | 0.571 | 0.549 | 0.517 | 0.488 | 0.458
1 µM, coculture fibroblast: HCFa | 0.751 | 0.662 | 0.6134 | 0.585 | 0.488 | 0.4439 | 0.3862 | 0.3528 | 0.32
1 µM, coculture fibroblast: HCPF | 0.831 | 0.842 | 0.804 | 0.703 | 0.728 | 0.705 | 0.682 | 0.652 | 0.651
1 µM, coculture fibroblast: HHSteC | 0.839 | 0.755 | 0.726 | 0.685 | 0.623 | 0.592 | 0.543 | 0.506 | 0.445
1 µM, coculture fibroblast: HMF | 0.786 | 0.7501 | 0.679 | 0.6044 | 0.571 | 0.536 | 0.4982 | 0.4641 | 0.439
1 µM, coculture fibroblast: HPFa | 0.917 | 0.8326 | 0.802 | 0.714 | 0.648 | 0.602 | 0.534 | 0.48 | 0.431
1 µM, coculture fibroblast: HUF | 0.8668 | 0.777 | 0.72 | 0.643 | 0.587 | 0.554 | 0.497 | 0.457 | 0.427
1 µM, coculture fibroblast: Hs5 | 0.864 | 0.857 | 0.831 | 0.806 | 0.751 | 0.719 | 0.693 | 0.657 | 0.629
1 µM, coculture fibroblast: Hs27A | 0.713 | 0.641 | 0.62 | 0.636 | 0.515 | 0.495 | 0.448 | 0.41 | 0.396
1 µM, coculture fibroblast: Hs343T | 0.798 | 0.809 | 0.735 | 0.634 | 0.626 | 0.581 | 0.521 | 0.491 | 0.456
1 µM, coculture fibroblast: WS1 | 0.85 | 0.757 | 0.699 | 0.634 | 0.576 | 0.542 | 0.496 | 0.456 | 0.436
10 µM, coculture fibroblast: C12385 | 0.822 | 0.757 | 0.7 | 0.631 | 0.564 | 0.528 | 0.497 | 0.462 | 0.447
10 µM, coculture fibroblast: H6013 | 0.7714 | 0.705 | 0.678 | 0.666 | 0.609 | 0.603 | 0.579 | 0.562 | 0.533
10 µM, coculture fibroblast: H6019 | 0.818 | 0.753 | 0.71 | 0.657 | 0.621 | 0.593 | 0.547 | 0.5 | 0.454
10 µM, coculture fibroblast: H6076 | 0.79415 | 0.788 | 0.753 | 0.7125 | 0.683 | 0.677 | 0.66 | 0.642 | 0.641
10 µM, coculture fibroblast: H6231 | 0.822 | 0.778 | 0.715 | 0.664 | 0.62 | 0.6 | 0.571 | 0.539 | 0.53
10 µM, coculture fibroblast: HADF | 0.746 | 0.706 | 0.68 | 0.686 | 0.603 | 0.578 | 0.556 | 0.532 | 0.532
10 µM, coculture fibroblast: HCFa | 0.844 | 0.844 | 0.838 | 0.797 | 0.803 | 0.793 | 0.772 | 0.753 | 0.617
10 µM, coculture fibroblast: HCPF | 0.799 | 0.784 | 0.732 | 0.679 | 0.656 | 0.627 | 0.598 | 0.573 | 0.568
10 µM, coculture fibroblast: HHSteC | 0.836 | 0.794 | 0.756 | 0.721 | 0.65 | 0.617 | 0.575 | 0.554 | 0.509
10 µM, coculture fibroblast: HMF | 0.766 | 0.761 | 0.696 | 0.638 | 0.6102 | 0.582 | 0.555 | 0.523 | 0.507
10 µM, coculture fibroblast: HPFa | 0.8765 | 0.796 | 0.7534 | 0.6644 | 0.607 | 0.575 | 0.525 | 0.479 | 0.44
10 µM, coculture fibroblast: HUF | 0.8586 | 0.745 | 0.706 | 0.637 | 0.582 | 0.559 | 0.515 | 0.488 | 0.471
10 µM, coculture fibroblast: Hs5 | 0.847 | 0.834 | 0.8006 | 0.78 | 0.707 | 0.676 | 0.648 | 0.629 | 0.642
10 µM, coculture fibroblast: Hs27A | 0.702 | 0.636 | 0.591 | 0.594 | 0.48 | 0.472 | 0.433 | 0.409 | 0.397
10 µM, coculture fibroblast: Hs343T | 0.813 | 0.8 | 0.749 | 0.693 | 0.659 | 0.627 | 0.59 | 0.564 | 0.539
10 µM, coculture fibroblast: WS1 | 0.834 | 0.765 | 0.726 | 0.665 | 0.617 | 0.593 | 0.56 | 0.525 | 0.491
100 µM, coculture fibroblast: C12385 | 0.7573 | 0.699 | 0.648 | 0.594 | 0.539 | 0.51 | 0.484 | 0.454 | 0.44
100 µM, coculture fibroblast: H6013 | 0.676 | 0.608 | 0.562 | 0.544 | 0.502 | 0.5 | 0.487 | 0.482 | 0.438
100 µM, coculture fibroblast: H6019 | 0.779 | 0.697 | 0.644 | 0.596 | 0.561 | 0.559 | 0.53 | 0.504 | 0.482
100 µM, coculture fibroblast: H6076 | 0.753 | 0.702 | 0.667 | 0.65 | 0.592 | 0.589 | 0.565 | 0.55 | 0.56
100 µM, coculture fibroblast: H6231 | 0.759 | 0.76 | 0.681 | 0.6 | 0.579 | 0.552 | 0.517 | 0.477 | 0.4658
100 µM, coculture fibroblast: HADF | 0.695 | 0.621 | 0.572 | 0.555 | 0.477 | 0.457 | 0.433 | 0.415 | 0.396
100 µM, coculture fibroblast: HCFa | 0.709 | 0.666 | 0.61 | 0.583 | 0.519 | 0.498 | 0.468 | 0.45 | 0.415
100 µM, coculture fibroblast: HCPF | 0.7598 | 0.776 | 0.699 | 0.608 | 0.607 | 0.574 | 0.535 | 0.503 | 0.486
100 µM, coculture fibroblast: HHSteC | 0.7586 | 0.705 | 0.682 | 0.656 | 0.599 | 0.579 | 0.553 | 0.535 | 0.476
100 µM, coculture fibroblast: HMF | 0.7304 | 0.7705 | 0.6764 | 0.567 | 0.5479 | 0.5166 | 0.4738 | 0.447 | 0.4255
100 µM, coculture fibroblast: HPFa | 0.817 | 0.722 | 0.686 | 0.596 | 0.55 | 0.53 | 0.485 | 0.453 | 0.423
100 µM, coculture fibroblast: HUF | 0.8 | 0.65 | 0.578 | 0.505 | 0.458 | 0.443 | 0.402 | 0.387 | 0.384
100 µM, coculture fibroblast: Hs5 | 0.8121 | 0.815 | 0.76133 | 0.729 | 0.665 | 0.632 | 0.608 | 0.59 | 0.587
100 µM, coculture fibroblast: Hs27A | 0.701 | 0.6529 | 0.6178 | 0.625 | 0.521 | 0.525 | 0.505 | 0.502 | 0.475
100 µM, coculture fibroblast: Hs343T | 0.7706 | 0.774 | 0.704 | 0.6309 | 0.599 | 0.563 | 0.525 | 0.497 | 0.462
100 µM, coculture fibroblast: WS1 | 0.7503 | 0.681 | 0.653 | 0.607 | 0.573 | 0.557 | 0.52 | 0.495 | 0.482
